# Reference: the supplement of paper PMC8728848
# The list shows a part of the results.
# B1: PX9916F-bfa-443-24-443 (Bacteroides fragilis) (protein)
# chain: DIRPVGSVIPQTAEEYRALLARAYLNVPNDRGLACLRSDEMLVNDNEYDRNSYGDIERWNDVSPFPGTSQFTWSNFYNVLFIANQVIESQKEITEGTPEVVNQLVGEAHLLRAYLHFVLVNLHGQPYTKSGALNSKSIPLKLDTDLEKTLGRNTVEEVYTSILSDIEHARELINKEKWETVFSYRFNVLSVDALQSRVSLYMGAWPKCLESAEAVLAKKSVLVDMNETPLALPNHFESVESITALEQVMGSSVNNAVWVPATFLALYQEGDKRLAAYFAAPDENGNRKSSKGGKREFSCTFRVGELYLNAAEAAANMDKLPHARMRLLELMRKRYTPEAYDKKENAVNVMDKNALISEILNERARELAFEGHRWFDLRRTTRPRMVKVLQGKTYILEQDDPRYTIPIPRDAIAANPGLAN
# Columns and labels:
# Test in all cases: glycan array binding signal (z-score within array); higher = stronger binding
# Conditions in all cases: glycan notation: IUPAC condensed, linker removed
# [1] = molecular target: Neu5Ac(a2-3)Gal(b1-3)[Fuc(a1-4)]GlcNAc
# Summary of the method: (§1)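 Arrays were curated from the Consortium for Functional Glycomics database, 3228 in total, and kept only where the protein sequence was available. Binding is expressed as a within-array Z-score. This score was averaged across arrays of the same protein sequence at different concentrations or buffers and across linkers, and negative values can be read as non-binding.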
# [2] = molecular target: Neu5Ac(a2-3)Gal(b1-3)[Fuc(a1-4)]GlcNAc(b1-3)Gal(b1-3)[Fuc(a1-4)]GlcNAc
# Summary of the method: as §1
# [3] = molecular target: Neu5Ac(a2-3)Gal(b1-3)[Fuc(a1-4)]GlcNAc(b1-3)Gal(b1-4)[Fuc(a1-3)]GlcNAc
# Summary of the method: as §1
# [4] = molecular target: Neu5Ac(a2-3)Gal(b1-3)[GlcNAc(b1-6)]GalNAc
# Summary of the method: as §1
# [5] = molecular target: Neu5Ac(a2-3)Gal(b1-3)[Neu5Ac(a2-6)]GalNAc
# Summary of the method: as §1
# [6] = molecular target: Neu5Ac(a2-3)Gal(b1-3)[Neu5Ac(a2-6)]GlcNAc(b1-3)[Fuc(a1-3)[Gal(b1-4)]GlcNAc(b1-6)]Gal(b1-4)Glc
# Summary of the method: as §1
# [7] = molecular target: Neu5Ac(a2-3)Gal(b1-3)]Neu5Ac(a2-3)Gal(b1-4)]GlcNAc
# Summary of the method: as §1
# Neu5Ac(a2-3)Gal(b1-4)Glc = molecular target: Neu5Ac(a2-3)Gal(b1-4)Glc
# Summary of the method: as §1
# [8] = molecular target: Neu5Ac(a2-3)Gal(b1-4)GlcNAc
# Summary of the method: as §1
# [9] = molecular target: Neu5Ac(a2-3)Gal(b1-4)GlcNAc(b1-2)Man
# Summary of the method: as §1
# [10] = molecular target: Neu5Ac(a2-3)Gal(b1-4)GlcNAc(b1-2)Man(a1-3)[GlcNAc(b1-4)][Neu5Ac(a2-3)Gal(b1-4)GlcNAc(b1-2)Man(a1-6)]Man(b1-4)GlcNAc(b1-4)GlcNAc
# Summary of the method: as §1
# [11] = molecular target: Neu5Ac(a2-3)Gal(b1-4)GlcNAc(b1-2)Man(a1-3)[Neu5Ac(a2-3)Gal(b1-4)GlcNAc(b1-2)Man(a1-6)]Man(b1-4)GlcNAc(b1-4)GlcNAc
# Summary of the method: as §1
# [12] = molecular target: Neu5Ac(a2-3)Gal(b1-4)GlcNAc(b1-2)Man(a1-3)[Neu5Ac(a2-3)Gal(b1-4)GlcNAc(b1-2)Man(a1-6)]Man(b1-4)GlcNAc(b1-4)[Fuc(a1-6)]GlcNAc
# Summary of the method: as §1
# [13] = molecular target: Neu5Ac(a2-3)Gal(b1-4)GlcNAc(b1-2)Man(a1-3)[Neu5Ac(a2-6)Gal(b1-4)GlcNAc(b1-2)Man(a1-6)]Man(b1-4)GlcNAc(b1-4)GlcNAc
# Summary of the method: as §1
# [14] = molecular target: Neu5Ac(a2-3)Gal(b1-4)GlcNAc(b1-2)[Neu5Ac(a2-3)Gal(b1-4)GlcNAc(b1-4)]Man(a1-3)[GlcNAc(b1-4)][Neu5Ac(a2-3)Gal(b1-4)GlcNAc(b1-2)[Neu5Ac(a2-3)Gal(b1-4)GlcNAc(b1-6)]Man(a1-6)]Man(b1-4)GlcNAc(b1-4)GlcNAc
# Summary of the method: as §1
# [15] = molecular target: Neu5Ac(a2-3)Gal(b1-4)GlcNAc(b1-2)[Neu5Ac(a2-3)Gal(b1-4)GlcNAc(b1-4)]Man(a1-3)[GlcNAc(b1-4)][Neu5Ac(a2-3)Gal(b1-4)GlcNAc(b1-4)Man(a1-6)]Man(b1-4)GlcNAc(b1-4)GlcNAc
# Summary of the method: as §1
# [16] = molecular target: Neu5Ac(a2-3)Gal(b1-4)GlcNAc(b1-2)[Neu5Ac(a2-3)Gal(b1-4)GlcNAc(b1-6)]Man(a1-6)[Neu5Ac(a2-3)Gal(b1-4)GlcNAc(b1-2)Man(a1-3)]Man(b1-4)GlcNAc(b1-4)GlcNAc
# Summary of the method: as §1
# [17] = molecular target: Neu5Ac(a2-3)Gal(b1-4)GlcNAc(b1-2)[Neu5Ac(a2-3)Gal(b1-4)GlcNAc(b1-6)]Man(a1-6)[Neu5Ac(a2-3)Gal(b1-4)GlcNAc(b1-2)Man(a1-3)][GlcNAc(b1-4)]Man(b1-4)GlcNAc(b1-4)GlcNAc
# Summary of the method: as §1
# [18] = molecular target: Neu5Ac(a2-3)Gal(b1-4)GlcNAc(b1-3)Gal
# Summary of the method: as §1
# [19] = molecular target: Neu5Ac(a2-3)Gal(b1-4)GlcNAc(b1-3)Gal(b1-3)GlcNAc
# Summary of the method: as §1
# [20] = molecular target: Neu5Ac(a2-3)Gal(b1-4)GlcNAc(b1-3)Gal(b1-4)GlcNAc
# Summary of the method: as §1
# [21] = molecular target: Neu5Ac(a2-3)Gal(b1-4)GlcNAc(b1-3)Gal(b1-4)GlcNAc(b1-2)Man(a1-3)[Neu5Ac(a2-3)Gal(b1-4)GlcNAc(b1-3)Gal(b1-4)GlcNAc(b1-2)Man(a1-6)]Man(b1-4)GlcNAc(b1-4)GlcNAc
# Summary of the method: as §1
# [22] = molecular target: Neu5Ac(a2-3)Gal(b1-4)GlcNAc(b1-3)Gal(b1-4)GlcNAc(b1-3)Gal(b1-4)GlcNAc
# Summary of the method: as §1
# [23] = molecular target: Neu5Ac(a2-3)Gal(b1-4)GlcNAc(b1-3)Gal(b1-4)GlcNAc(b1-3)Gal(b1-4)GlcNAc(b1-2)Man(a1-3)[Neu5Ac(a2-3)Gal(b1-4)GlcNAc(b1-3)Gal(b1-4)GlcNAc(b1-3)Gal(b1-4)GlcNAc(b1-2)Man(a1-6)]GalNAc
# Summary of the method: as §1
# [24] = molecular target: Neu5Ac(a2-3)Gal(b1-4)GlcNAc(b1-3)Gal(b1-4)GlcNAc(b1-3)GalNAc
# Summary of the method: as §1
# [25] = molecular target: Neu5Ac(a2-3)Gal(b1-4)GlcNAc(b1-3)Gal(b1-4)GlcNAc(b1-3)[Neu5Ac(a2-3)Gal(b1-4)GlcNAc(b1-3)Gal(b1-4)GlcNAc(b1-6)]GalNAc
# Summary of the method: as §1
# [26] = molecular target: Neu5Ac(a2-3)Gal(b1-4)GlcNAc(b1-3)Gal(b1-4)GlcNAc(b1-6)[Gal(b1-3)]GalNAc
# Summary of the method: as §1
# [27] = molecular target: Neu5Ac(a2-3)Gal(b1-4)GlcNAc(b1-3)Gal(b1-4)[Fuc(a1-3)]GlcNAc
# Summary of the method: as §1
# [28] = molecular target: Neu5Ac(a2-3)Gal(b1-4)GlcNAc(b1-3)GalNAc
# Summary of the method: as §1
# [29] = molecular target: Neu5Ac(a2-3)Gal(b1-4)GlcNAc(b1-3)[Neu5Ac(a2-3)Gal(b1-4)GlcNAc(b1-6)]GalNAc
# Summary of the method: as §1
binder,measurement,setting,value
B1,glycan array binding signal (z-score),[1],-0.955
same,glycan array binding signal (z-score),[2],-0.537
same,glycan array binding signal (z-score),[3],-0.202
same,glycan array binding signal (z-score),[4],1.17
same,glycan array binding signal (z-score),[5],-0.491
same,glycan array binding signal (z-score),[6],-0.503
same,glycan array binding signal (z-score),[7],0.006
same,glycan array binding signal (z-score),Neu5Ac(a2-3)Gal(b1-4)Glc,0.058
same,glycan array binding signal (z-score),[8],-0.536
same,glycan array binding signal (z-score),[9],0.699
same,glycan array binding signal (z-score),[10],-1.31
same,glycan array binding signal (z-score),[11],0.157
same,glycan array binding signal (z-score),[12],-0.107
same,glycan array binding signal (z-score),[13],-1.29
same,glycan array binding signal (z-score),[14],-1.07
same,glycan array binding signal (z-score),[15],0.089
same,glycan array binding signal (z-score),[16],1
same,glycan array binding signal (z-score),[17],-0.439
same,glycan array binding signal (z-score),[18],-0.63
same,glycan array binding signal (z-score),[19],-0.437
same,glycan array binding signal (z-score),[20],-0.791
same,glycan array binding signal (z-score),[21],1.24
same,glycan array binding signal (z-score),[22],0.171
same,glycan array binding signal (z-score),[23],1.4
same,glycan array binding signal (z-score),[24],-1.36
same,glycan array binding signal (z-score),[25],-0.331
same,glycan array binding signal (z-score),[26],0.396
same,glycan array binding signal (z-score),[27],0.232
same,glycan array binding signal (z-score),[28],0.196
same,glycan array binding signal (z-score),[29],2.32

# Two entries drawn at random from the list so far:
binder,measurement,setting,value
B1,glycan array binding signal (z-score),[27],0.232
same,glycan array binding signal (z-score),[15],0.089
